Experiment [1] concerns the target human RANK (human). Kind of experiment: ELISA, coated recombinant protein. (In general: In an ELISA, binding on a coated surface is turned into a signal by an enzyme label.)
Experiment [2] addresses human RANK (human). Put plainly: condition: about log 3.9 on the axis LoG Con.(ng/mL), about 8000 ng/mL; ELISA on coated recombinant TNFRSF proteins, serially diluted antibody (Example 17).

Results are given in words; binding and its absence hold for the method and conditions named.

B1: 13A2-VH3VL3 (antibody, human IgG2, kappa, V domains shown)
VH: QVQLQESGPGLVKPSDTLSLTCAVSGYSITTNYYWNWIRQPPGNKLEWMGYINYDGSNNYNPSLKNRITISVDTSKNQFSLKLSSVTAVDTAVYYCARLDYWGQGTLVTVSS
VL: DVVLTQSPLSLPVTLGQPASISCRSSQSLENSNGNTFLNWFQQRPGQSPRLLIYKVSNRFSGVPDRFSGSGSGTDFTLKISRVEAEDVGVYFCLQVTHVPFTFGSGTKLEIKR
As for B1, the binding result in the experiment with human RANK (human) [1] and with human RANK (human) [2] was “no binding” in each case.

Source of the values: patent US10654939.
